This passage reports binding signal results from publication PMC7819943, “Rice protein-binding microarrays: a tool to detect cis-acting elements near promoter regions in rice”.

Amino acid sequences for entries named in this document (tags omitted).
UniProt Q0JBA9, entry or part of it: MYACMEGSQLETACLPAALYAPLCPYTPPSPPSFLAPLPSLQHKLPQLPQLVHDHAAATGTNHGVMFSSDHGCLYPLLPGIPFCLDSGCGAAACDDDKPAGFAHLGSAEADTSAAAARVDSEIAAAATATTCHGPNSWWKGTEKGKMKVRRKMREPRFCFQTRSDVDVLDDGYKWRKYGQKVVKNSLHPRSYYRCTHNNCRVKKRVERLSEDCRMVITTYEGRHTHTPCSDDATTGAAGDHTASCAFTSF

This is one part of the list.

This test deals with OsWRKY34 (Oryza sativa, UniProt Q0JBA9 1-250). Briefly: protein-binding microarray (RPBM); PBS, 2% BSA, 51.3 ng/ul salmon testes DNA, 50 uM zinc acetate, 200 nM TF, 25 C, 1 h; high values mean tight binding. The note with it: protein: recombinant; tags: N-terminal polyhistidine and DsRed monomer fusion (pET32a); label: CyDye5-dUTP incorporated in the synthesized complementary strand; 3' TTTTT single-stranded linker to array surface; dsDNA, one strand shown. The gist of the method:
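Transcription factors were made in E. coli BL21-CodonPlus as N-terminal fusions to a polyhistidine tag and DsRed, then purified on Ni–NTA. After primer extension with Cy5-dUTP and blocking with 2% BSA, a custom Agilent array was exposed for 1 h at 25 °C to 200 nM protein in PBS, 2% BSA, salmon testes DNA and 50 µM zinc acetate. Washed arrays were scanned on an Axon 4000B, and the binding signal is per-feature fluorescence intensity in arbitrary units.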
For the sequence “CATCAAAATTTTCCTACACGCATAAATTTTCAACTTTTTTCGGAGTCACCTAGTGCAG”, the binding signal was 8190 fluorescence intensity (a.u.).
With “CAGCGGCGAAGGGAGATCTCAACCGGAGGAGGAGGAGGGGCGGAGTCACCTAGTGCAG”, the binding signal was 9260 fluorescence intensity (a.u.).
As for “ATACTCCCTCTGTTTCACAATATAAATCATTTTATTATTTCGGAGTCACCTAGTGCAG”, the binding signal is 9260 fluorescence intensity (a.u.).
With “CATTCACGTGCCACATCAACTTGATCACGAACTTTGAATACGGAGTCACCTAGTGCAG”, the binding signal was 10600 fluorescence intensity (a.u.).
Then “TCTTCAAGGCCATATATCCGCATATCGTGTGTTTCTTTTGCGGAGTCACCTAGTGCAG”, with 12500 fluorescence intensity (a.u.).
Then “CAACCGCCGCTCGATTCAAACTCACACGTCGCACCACAGCCGGAGTCACCTAGTGCAG”, with 8400 fluorescence intensity (a.u.).
Then “TTTAGACAAATTCTAGGGGTGTTATGGTTTCTTTATGAGACGGAGTCACCTAGTGCAG”, with 10300 fluorescence intensity (a.u.); and “CCAGACCCACTCGCCGTCGCCGCCGCCGCCTCCGCCTACTCGGAGTCACCTAGTGCAG”, with 11000 fluorescence intensity (a.u.).
Consider “TCCCTTGTCTTCAAACCACATCTGTGCATCATTTTTTCCCCGGAGTCACCTAGTGCAG”, for which the binding signal is 8480 fluorescence intensity (a.u.).
Take “GCTAAATACCAGCGAAGCAGTCGCCCGCGCAAACGCGCGCCGGAGTCACCTAGTGCAG”: the binding signal is 8220 fluorescence intensity (a.u.).
“AACATGCTTGGAATTGGTCGCTCCGTCATCTACATTGTCACGGAGTCACCTAGTGCAG”: the binding signal was 10300 fluorescence intensity (a.u.).
As to “AGTACTAACATGCATCTTGGATATTTTTATGCTCGCCTATCGGAGTCACCTAGTGCAG”, the binding signal was 8820 fluorescence intensity (a.u.).
Consider “GTTTTGGAATATTACAAGTGGGTCCCACTCCACCTCTTATCGGAGTCACCTAGTGCAG”, for which the binding signal was 8350 fluorescence intensity (a.u.).
As to “CTCTGCCTCTGCCTCTCTATAAAAACCGCCAGAGTAGACACGGAGTCACCTAGTGCAG”, the binding signal was 8220 fluorescence intensity (a.u.).
Next, “CGTCCTCTGCCACGTCTTGTCGATTTGTCTTCCGTCAGCACGGAGTCACCTAGTGCAG”: 11200 fluorescence intensity (a.u.); “TCCACTCCCTGTCGCGCGCCACGTCGCCTGCTGCCGCCCGCGGAGTCACCTAGTGCAG”: 10400 fluorescence intensity (a.u.).
Turning to “ACTTGGTAGTGCTAACTCTTAAATTTAACTTTAGAAATTGCGGAGTCACCTAGTGCAG”, the binding signal was 8220 fluorescence intensity (a.u.).
For “AAGTTTTCTTTAACCACTGGTTCCCGTTCCATTTCTTGCACGGAGTCACCTAGTGCAG”, the binding signal is 8800 fluorescence intensity (a.u.).
Next, “ACCCAAGCCTCCGCCGCCGTTCCCATCTCCTCGTCCTCCGCGGAGTCACCTAGTGCAG”: 10600 fluorescence intensity (a.u.); “CAGTGCTTCATGGGTTCATGCATCTACAGTGTGCTTCTGACGGAGTCACCTAGTGCAG”: 9130 fluorescence intensity (a.u.).
Regarding “TGCCCTTAAAAATAATCTCATATTTTTCTTTCAGTTCTATCGGAGTCACCTAGTGCAG”, the binding signal is 8250 fluorescence intensity (a.u.).
For the sequence “GATGTGCCAATGGTTTCTTTCTCTTTCTTTCTCTTTAAAACGGAGTCACCTAGTGCAG”, the binding signal is 8910 fluorescence intensity (a.u.).
Take “GAACATTCAGAAATTTCTGTGCAATATTATCTCATGACCTCGGAGTCACCTAGTGCAG”: the binding signal was 9350 fluorescence intensity (a.u.).
Then “ACCATTATTTCTTTTTGTACAACCCAAATTGCACCACTGACGGAGTCACCTAGTGCAG”, with 10400 fluorescence intensity (a.u.); and “GATTGTGTCGCCCACCGCCTCGTCGACATCTGCACGTCTCCGGAGTCACCTAGTGCAG”, with 9130 fluorescence intensity (a.u.).
For “GCTACATTTTGAGACGGGGTGGTATAAATTTTAACCTTTGCGGAGTCACCTAGTGCAG”, the binding signal is 8170 fluorescence intensity (a.u.).
On to “TGTTTTTTTTTTTCTACTACATAGCTGCATTCACCGTATCCGGAGTCACCTAGTGCAG”, for which the binding signal was 9620 fluorescence intensity (a.u.).
Next, “ACGTATCGCGCATTCGCACGCAACGTGCCATTTTTGCACACGGAGTCACCTAGTGCAG”: 8220 fluorescence intensity (a.u.); “TCCCTACTTTTCTCGAGTTTTTTTTTTTTGGTTGCGACTGCGGAGTCACCTAGTGCAG”: 9490 fluorescence intensity (a.u.); “CGTCCTGCAGCCGCATCCGCCCACCCCGTGCACCCGGTCTCGGAGTCACCTAGTGCAG”: 8730 fluorescence intensity (a.u.).
With “CCTTCCCCTATCATGCATGTCCTCTTCTGTTCCGACTCCCCGGAGTCACCTAGTGCAG”, the binding signal was 12600 fluorescence intensity (a.u.).
Take “TTAAATAAGACAAATGGTCAAACATGTGCTAAAAAGTCAACGGAGTCACCTAGTGCAG”: the binding signal was 10600 fluorescence intensity (a.u.).
Then “CCATGTTCCCTTTTTTTTTACCTTCAGTTTCAAAATGTTACGGAGTCACCTAGTGCAG”, with 8340 fluorescence intensity (a.u.); and “AAGGCGCACAAGATCTTAATTCACTCACGGATTTCTCAAACGGAGTCACCTAGTGCAG”, with 8400 fluorescence intensity (a.u.).
For the sequence “GCACCTCGCAATATCCATGGTCCCCGCTGCCCGTGGACTCCGGAGTCACCTAGTGCAG”, the binding signal is 10300 fluorescence intensity (a.u.).
As for “CTAAATATTTGACGCCGTTGACTTTTTAAAACATGTTTGACGGAGTCACCTAGTGCAG”, the binding signal was 30500 fluorescence intensity (a.u.).
Turning to “GTATGGTTGGTTGGTTGGTTTGTTGGGTTTCTCCCCGGCCCGGAGTCACCTAGTGCAG”, the binding signal was 33300 fluorescence intensity (a.u.).
“TCATTCAATATTTACTCGATCGTCATCCATCTCTAAACACCGGAGTCACCTAGTGCAG”: the binding signal was 8860 fluorescence intensity (a.u.).
As for “AAGATATACTTATGATACCATATCCCAATTTTATTTTTTTCGGAGTCACCTAGTGCAG”, the binding signal was 9190 fluorescence intensity (a.u.).
For the sequence “CTGATTGATCCCCTTTGCAGAGTTACGTCCTTGTTAAGCACGGAGTCACCTAGTGCAG”, the binding signal is 9060 fluorescence intensity (a.u.).
“GTCGCTCTCTGCTCCTCCTCGTCCCTCGCGCCGTCACCACCGGAGTCACCTAGTGCAG”: the binding signal is 12500 fluorescence intensity (a.u.).
As to “AGGAGGGTGTGGGTGCGGGGAAATCGTGTGCTGCTGAGCTCGGAGTCACCTAGTGCAG”, the binding signal was 10800 fluorescence intensity (a.u.).
